Test results taken from the supplement of paper PMC8920030.
Further values from the same series stand in other lists. Where a SMILES comes first, the peptide text is derived from it. Bridges are numbered along the chain shown (N, C = ends). [ ]: non-standard residue; d: D form. The star is where a group is joined. Heptanoyl(5-Me) = CCC(C)CCCC(=O)*; Dab = NCC[C@H](N)C(=O)O

Tests used:
Conditions in all cases: growth mode: biofilm, 24 h; exposure time: 24 h
[1] = compound: T1, NC[C@H]1O[C@H](O[C@H]2[C@H](O)[C@@H](O[C@H]3O[C@H](CO)[C@@H](O)[C@H](N)[C@H]3O)[C@H](N)C[C@@H]2N)[C@H](N)C[C@@H]1O [tobramycin]; assay: minimum concentration of killing, 4-log CFU reduction of biofilm (MCK99.99); higher = more biofilm tolerance
Protocol: (§1)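 Clinical P. aeruginosa isolates were grown as static biofilms for 24 h at 37 °C in LB in half-area 96-well plates, then exposed for 24 h to tobramycin at 1, 4, 16, 64, 256 or […]. Surviving CFU were counted by spotting serial dilutions. MCK is the lowest tested concentration giving the stated log reduction in CFU versus an untreated control; '>1024' means the reduction was not reached at the top dose, and 1 is the lowest dose tested (≤1).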

[2] = compound: T2, CCC(C)CCCC(=O)N[C@@H](CCN)C(=O)N[C@H](C(=O)N[C@@H](CCN)C(=O)N[C@H]1CCNC(=O)[C@H]([C@@H](C)O)NC(=O)[C@H](CCN)NC(=O)[C@H](CCN)NC(=O)[C@H](CC(C)C)NC(=O)[C@@H](CC(C)C)NC(=O)[C@H](CCN)NC1=O)[C@@H](C)O [colistin]; assay: minimum concentration eradicating biofilm below detection limit (MCK-E); higher = more biofilm tolerance
Protocol: as §1, with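 “colistin” for “tobramycin”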

[3] = compound: T2, colistin; assay: minimum concentration of killing, 2-log CFU reduction of biofilm (MCK99); higher = more biofilm tolerance
Protocol: as §1, with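 “colistin” for “tobramycin”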

[4] = compound: T1, tobramycin; assay: minimum concentration of killing, 1-log CFU reduction of biofilm (MCK90); higher = more biofilm tolerance
Protocol: as §1

[5] = compound: T2, colistin; assay: as above
Protocol: as §1, with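 “colistin” for “tobramycin”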

[6] = compound: T1, tobramycin; assay: minimum concentration eradicating biofilm below detection limit (MCK-E); higher = more biofilm tolerance
Protocol: as §1

[7] = compound: T1, tobramycin; assay: minimum concentration of killing, 2-log CFU reduction of biofilm (MCK99); higher = more biofilm tolerance
Protocol: as §1

[8] = compound: T2, colistin; assay: minimum concentration of killing, 4-log CFU reduction of biofilm (MCK99.99); higher = more biofilm tolerance
Protocol: as §1, with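 “colistin” for “tobramycin”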

Row | Test System | minimum concentration of killing [1] [µg/mL] | minimum concentration eradicating biofilm below detection limit [2] [µg/mL] | minimum concentration of killing [3] [µg/mL] | minimum concentration of killing [4] [µg/mL] | minimum concentration of killing [5] [µg/mL] | minimum concentration eradicating biofilm below detection limit [6] [µg/mL] | minimum concentration of killing [7] [µg/mL] | minimum concentration of killing [8] [µg/mL]
1 | Pseudomonas aeruginosa clinical isolate MHH14929 | 256 | 256 | 256 | ≤ 1 | 256 | 1020 | 16 | 256
2 | Pseudomonas aeruginosa clinical isolate MHH14990 | 256 | 256 | 256 | 16 | 256 | 256 | 16 | 256
3 | Pseudomonas aeruginosa clinical isolate MHH15015 | 1020 | 256 | 64 | 256 | 64 | 1020 | 1020 | 64
4 | Pseudomonas aeruginosa clinical isolate MHH15151 | 64 | 256 | 256 | 16 | 256 | 64 | 16 | 256
5 | Pseudomonas aeruginosa clinical isolate MHH15187 | 256 | 256 | 64 | ≤ 1 | ≤ 1 | 256 | 16 | 256
6 | Pseudomonas aeruginosa clinical isolate MHH15204 | 1020 | 64 | 16 | ≤ 1 | ≤ 1 | 1020 | 64 | 64
7 | Pseudomonas aeruginosa clinical isolate MHH15275 | > 1020 | 256 | 256 | 1020 | 256 | > 1020 | > 1020 | 256
8 | Pseudomonas aeruginosa clinical isolate MHH15280 | 1020 | 256 | 256 | 64 | 256 | 1020 | 64 | 256
9 | Pseudomonas aeruginosa clinical isolate MHH15286 | 64 | 256 | 64 | ≤ 1 | 64 | 256 | ≤ 1 | 256
10 | Pseudomonas aeruginosa clinical isolate MHH15817 | 256 | 256 | 256 | ≤ 1 | ≤ 1 | 256 | 64 | 256
11 | Pseudomonas aeruginosa clinical isolate MHH16050 | > 1020 | 64 | 64 | 16 | 64 | > 1020 | 1020 | 64
12 | Pseudomonas aeruginosa clinical isolate MHH16208 | 256 | 256 | 256 | ≤ 1 | 256 | 256 | 4 | 256
13 | Pseudomonas aeruginosa clinical isolate MHH16371 | 256 | 256 | 64 | 16 | 64 | 256 | 16 | 256
14 | Pseudomonas aeruginosa clinical isolate MHH16379 | 256 | 256 | 256 | ≤ 1 | 64 | 256 | 4 | 256
15 | Pseudomonas aeruginosa clinical isolate MHH16427 | 256 | 256 | 256 | 4 | 256 | 1020 | 16 | 256
16 | Pseudomonas aeruginosa clinical isolate MHH16459 | > 1020 | 256 | 256 | 256 | 256 | > 1020 | 256 | 256
17 | Pseudomonas aeruginosa clinical isolate MHH16513 | 4 | 256 | 256 | 4 | 16 | 256 | 4 | 256
18 | Pseudomonas aeruginosa clinical isolate MHH16530 | 1020 | 256 | 256 | 64 | 64 | 1020 | 256 | 256
19 | Pseudomonas aeruginosa clinical isolate MHH16563 | 1020 | 64 | 64 | 64 | 16 | > 1020 | 256 | 64
20 | Pseudomonas aeruginosa clinical isolate MHH16610 | 256 | 256 | 256 | ≤ 1 | 64 | 1020 | 4 | 256

Row | Test System | minimum concentration of killing [1] [µg/mL] | minimum concentration eradicating biofilm below detection limit [2] [µg/mL] | minimum concentration of killing [3] [µg/mL] | minimum concentration of killing [4] [µg/mL] | minimum concentration of killing [5] [µg/mL] | minimum concentration eradicating biofilm below detection limit [6] [µg/mL] | minimum concentration of killing [7] [µg/mL] | minimum concentration of killing [8] [µg/mL]
21 | Pseudomonas aeruginosa clinical isolate MHH16727 | 1020 | 256 | 256 | 256 | 256 | 1020 | 256 | 256
22 | Pseudomonas aeruginosa clinical isolate MHH16798 | 16 | 256 | 64 | ≤ 1 | 64 | 64 | 16 | 256
23 | Pseudomonas aeruginosa clinical isolate MHH17247 | 16 | 256 | 256 | 4 | 256 | 64 | 4 | 256
24 | Pseudomonas aeruginosa clinical isolate MHH17501 | 256 | 256 | 256 | 64 | 256 | 1020 | 64 | 256
25 | Pseudomonas aeruginosa clinical isolate MHH17546 | 1020 | 64 | 64 | ≤ 1 | 16 | > 1020 | 64 | 64
26 | Pseudomonas aeruginosa clinical isolate MHH17704 | 64 | 256 | 256 | 4 | 256 | 64 | 16 | 256
27 | Pseudomonas aeruginosa clinical isolate MHH17767 | > 1020 | 256 | 256 | 256 | 64 | > 1020 | > 1020 | 256
28 | Pseudomonas aeruginosa clinical isolate MHH17783 | 256 | 64 | 64 | 4 | 64 | 256 | 16 | 64
29 | Pseudomonas aeruginosa clinical isolate MS1 | 1020 | 256 | 256 | 64 | 256 | 1020 | 256 | 256
30 | Pseudomonas aeruginosa clinical isolate MS2 | 1020 | 64 | 64 | 64 | 64 | 1020 | 256 | 64
31 | Pseudomonas aeruginosa clinical isolate MS5 | 1020 | 256 | 256 | 256 | 16 | 1020 | 256 | 256
32 | Pseudomonas aeruginosa clinical isolate PSAE1401 | 256 | 256 | 256 | 4 | 256 | 256 | 16 | 256
33 | Pseudomonas aeruginosa clinical isolate PSAE1438 | 16 | 256 | 256 | ≤ 1 | 64 | 256 | 16 | 256
34 | Pseudomonas aeruginosa clinical isolate PSAE1630 | > 1020 | 256 | 256 | ≤ 1 | 256 | > 1020 | 1020 | 256
35 | Pseudomonas aeruginosa clinical isolate PSAE1635 | 64 | 256 | 256 | 4 | 256 | 1020 | 4 | 256
36 | Pseudomonas aeruginosa clinical isolate PSAE1641 | 4 | 256 | 256 | ≤ 1 | 256 | 256 | ≤ 1 | 256
37 | Pseudomonas aeruginosa clinical isolate PSAE1642 | 64 | 256 | 256 | 16 | 256 | 256 | 16 | 256
38 | Pseudomonas aeruginosa clinical isolate PSAE1645 | 64 | 256 | 256 | ≤ 1 | 256 | 64 | 4 | 256
39 | Pseudomonas aeruginosa clinical isolate PSAE1647 | 64 | 256 | 64 | 4 | 64 | 256 | 4 | 256
40 | Pseudomonas aeruginosa clinical isolate PSAE1649 | 16 | 256 | 64 | ≤ 1 | 64 | 64 | ≤ 1 | 256
